Assay results as given in publication PMC10154422.
No constants are given. Whether binding was seen depends on the method and setting. In cells and extracts the contact can be indirect. A yes stands for co-enrichment or nearness to the bait. Other partners may have been found.

Assays:
[1] = target: APEX2-TACC3 (UniProt Q9Y6A5); assay: proximity labelling; APEX2-TACC3 in interphase synchronized JIMT-1 cells, biotinylation by H2O2, streptavidin pulldown, Western blot (Fig. 5I)
[2] = target: APEX2-TACC3 (UniProt Q9Y6A5); assay: proximity labelling; APEX2-TACC3 in mitotic JIMT-1 cells, H2O2 to induce biotinylation, streptavidin pulldown, immunoblotting (Supplementary Fig. S4B, C)

Molecule | binding [1] | binding [2]
MBD2, endogenous in JIMT-1 (from UniProt Q9UBB5 1-411) | binds | –
Kinesin Family Member C1 (KIFC1), endogenous in JIMT-1 (protein, UniProt Q9BW19 1-673) MDPQRSPLLEVKGNIELKRPLIKAPSQLPLSGSRLKRRPDQMEDGLEPEKKRTRGLGATTKITTSHPRVPSLTTVPQTQGQTTAQKVSKKTGPRCSTAIATGLKNQKPVPAVPVQKSGTSGVPPMAGGKKPSKRPAWDLKGQLCDLNAELKRCRERTQTLDQENQQLQDQLRDAQQQVKALGTERTTLEGHLAKVQAQAEQGQQELKNLRACVLELEERLSTQEGLVQELQKKQVELQEERRGLMSQLEEKERRLQTSEAALSSSQAEVASLRQETVAQAALLTEREERLHGLEMERRRLHNQLQELKGNIRVFCRVRPVLPGEPTPPPGLLLFPSGPGGPSDPPTRLSLSRSDERRGTLSGAPAPPTRHDFSFDRVFPPGSGQDEVFEEIAMLVQSALDGYPVCIFAYGQTGSGKTFTMEGGPGGDPQLEGLIPRALRHLFSVAQELSGQGWTYSFVASYVEIYNETVRDLLATGTRKGQGGECEIRRAGPGSEELTVTNARYVPVSCEKEVDALLHLARQNRAVARTAQNERSSRSHSVFQLQISGEHSSRGLQCGAPLSLVDLAGSERLDPGLALGPGERERLRETQAINSSLSTLGLVIMALSNKESHVPYRNSKLTYLLQNSLGGSAKMLMFVNISPLEENVSESLNSLRFASKVNQCVIGTAQANRK | – | binds
